{
  "sequences": {"note": "By UniProt entry, the sequences of proteins in these tests, tags left out.", "UniProt P55852": "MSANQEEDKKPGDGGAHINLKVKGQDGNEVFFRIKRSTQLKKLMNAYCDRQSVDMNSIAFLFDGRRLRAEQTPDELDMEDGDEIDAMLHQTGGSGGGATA", "UniProt P93002": "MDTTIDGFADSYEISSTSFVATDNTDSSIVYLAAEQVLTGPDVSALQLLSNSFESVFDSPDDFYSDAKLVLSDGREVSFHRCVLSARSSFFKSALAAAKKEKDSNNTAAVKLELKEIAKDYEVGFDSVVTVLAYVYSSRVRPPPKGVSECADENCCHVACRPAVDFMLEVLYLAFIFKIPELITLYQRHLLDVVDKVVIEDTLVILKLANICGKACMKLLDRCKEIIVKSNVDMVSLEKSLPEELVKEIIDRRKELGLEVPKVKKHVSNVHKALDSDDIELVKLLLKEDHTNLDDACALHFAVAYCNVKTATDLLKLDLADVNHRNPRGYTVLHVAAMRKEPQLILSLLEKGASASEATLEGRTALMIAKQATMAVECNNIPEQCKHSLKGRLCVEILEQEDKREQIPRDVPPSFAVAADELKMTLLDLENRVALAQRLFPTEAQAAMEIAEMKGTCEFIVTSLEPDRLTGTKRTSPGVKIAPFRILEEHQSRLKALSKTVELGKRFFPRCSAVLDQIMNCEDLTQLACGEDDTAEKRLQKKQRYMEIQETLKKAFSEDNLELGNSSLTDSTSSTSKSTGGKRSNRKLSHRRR"},
  "source": "paper PMC10275998",
  "key": {"[1]": {"target": "T1, BD-fused TGACG-BINDING FACTOR 3 (Arabidopsis) (UniProt Q39234)", "T1 sequence": "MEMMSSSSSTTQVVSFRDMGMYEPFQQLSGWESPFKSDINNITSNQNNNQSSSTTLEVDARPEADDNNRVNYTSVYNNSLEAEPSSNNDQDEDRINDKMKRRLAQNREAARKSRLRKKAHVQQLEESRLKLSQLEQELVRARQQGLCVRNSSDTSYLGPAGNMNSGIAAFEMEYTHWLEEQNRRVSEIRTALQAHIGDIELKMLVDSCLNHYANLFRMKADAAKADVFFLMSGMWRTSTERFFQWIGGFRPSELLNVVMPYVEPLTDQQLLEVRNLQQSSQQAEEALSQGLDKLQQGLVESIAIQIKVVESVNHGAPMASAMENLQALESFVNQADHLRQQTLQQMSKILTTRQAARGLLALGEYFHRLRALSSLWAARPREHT", "assay": "two-hybrid; yeast strain Golden, GAL4 AD and BD fusions, growth of serially diluted cells on selective medium lacking tryptophan, leucine, histidine and adenine (-AHLW); SA had no obvious influence on NIb-NPR1"}, "[2]": {"target": "BD-SUMO1 (UniProt P55852)", "assay": "two-hybrid; yeast strain Golden, GAL4 AD and BD fusions, growth of serially diluted cells on selective medium lacking tryptophan, leucine, histidine and adenine (-AHLW); SA had no obvious influence on NIb-NPR1"}, "[3]": {"target": "T2, TGA3, split-luciferase fusion (Arabidopsis) (UniProt Q39234)", "T2 sequence": "T1 sequence", "assay": "split reporter; competitive split-luciferase in N. benthamiana leaves with a co-expressed competitor (NIb, NIb_(sim2), other potyviral NIbs, SUMO1 or GUS); 60 hpi, 10 μM D-luciferin"}},
  "note": "Results are given in words; binding and its absence hold for the method and conditions named. For part of these data: Binding seen in cells or lysates may run through a third protein. Some binding calls cover weakened binding; strength is not graded here. For part of these data: Where a sequence is shown, tags or fusion partners need not be part of it.",
  "data": [
    {"substance": "GAL4 activation domain-fused Arabidopsis NPR1 (from UniProt P93002 1-593)", "values": [
      {"measurement": "binding", "setting": "[1]", "result": "binds"},
      {"measurement": "binding", "setting": "[2]", "result": "no binding"}
    ]},
    {"substance": "NPR1-nLUC (Arabidopsis) (from UniProt P93002 1-593)", "values": [
      {"measurement": "binding", "setting": "[3]", "result": "binds"}
    ]}
  ]
}
